According to US20080132505A1 (Glaxo Group Limited, priority 2004, published 2008):
Some of these results come from one statement about several compounds together. For some of these results: At least one structure is not confirmed: it was looked up by name or label, or the drawing left a doubt.

Protein sequences, listed by entry. Tags and fused reporters are not part of them.
UniProt P21554, whole entry: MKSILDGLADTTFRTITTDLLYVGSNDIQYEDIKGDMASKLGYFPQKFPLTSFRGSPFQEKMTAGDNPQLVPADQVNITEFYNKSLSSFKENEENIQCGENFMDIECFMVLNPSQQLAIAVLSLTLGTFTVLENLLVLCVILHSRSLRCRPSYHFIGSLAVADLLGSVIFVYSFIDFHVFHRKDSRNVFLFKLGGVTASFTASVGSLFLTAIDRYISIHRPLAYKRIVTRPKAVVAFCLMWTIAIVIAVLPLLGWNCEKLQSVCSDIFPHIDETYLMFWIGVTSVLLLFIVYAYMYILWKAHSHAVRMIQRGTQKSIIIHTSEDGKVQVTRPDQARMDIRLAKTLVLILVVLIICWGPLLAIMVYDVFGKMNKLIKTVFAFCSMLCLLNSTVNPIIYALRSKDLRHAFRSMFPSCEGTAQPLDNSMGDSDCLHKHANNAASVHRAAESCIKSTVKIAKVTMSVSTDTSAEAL
UniProt P34972, whole entry: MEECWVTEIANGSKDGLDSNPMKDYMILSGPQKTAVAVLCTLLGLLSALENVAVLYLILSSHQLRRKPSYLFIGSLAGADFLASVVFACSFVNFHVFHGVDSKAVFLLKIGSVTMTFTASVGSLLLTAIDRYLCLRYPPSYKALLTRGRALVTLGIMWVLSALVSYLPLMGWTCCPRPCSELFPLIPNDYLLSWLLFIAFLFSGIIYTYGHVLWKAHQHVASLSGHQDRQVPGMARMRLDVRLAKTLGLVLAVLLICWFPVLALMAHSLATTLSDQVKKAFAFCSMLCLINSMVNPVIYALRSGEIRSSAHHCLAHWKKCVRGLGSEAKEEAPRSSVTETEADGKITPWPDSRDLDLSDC

Columns and labels:
[1] = molecular target: human cannabinoid CB1 receptor (Homo sapiens, UniProt P21554); assay: Cannabinoid CB1 receptor agonist activity (yeast reporter assay, FDGlu fluorescence); type: cell-based; details: read-out: EC50 value at the cloned human cannabinoid CB1 receptor
[2] = molecular target: human cannabinoid CB2 receptor (Homo sapiens, UniProt P34972); assay: Cannabinoid CB2 receptor agonist activity (yeast reporter assay, FDGlu fluorescence); type: cell-based
Description: Determination of Cannabinoid CB2 Receptor Agonist Activity
The cannabinoid CB2 receptor agonist activity of the compounds of formula (I)-(IV) was determined in accordance with the following experimental method.
Yeast (Saccharomyces cerevisiae) cells expressing the human cannabinoid CB2 receptor were generated by integration of an expression cassette into the ura3 chromosomal locus of yeast strain MMY23. This cassette consisted of DNA sequence encoding the human CB2 receptor flanked by the yeast GPD promoter to the 5′ end of CB2 and a yeast transcriptional terminator sequence to the 3′ end of CB2. MMY23 expresses a yeast/mammalian chimeric G-protein alpha subunit in which the C-terminal 5 amino acids of Gpa1 are replaced with the C-terminal 5 amino acids of human Gαi3 (as described in Brown et al. (2000), Yeast 16:11-22). Cells were grown at 30° C. in liquid Synthetic Complete (SC) yeast media (Guthrie and Fink (1991), Methods in Enzymology, Vol. 194) lacking uracil, tryptophan, adenine and leucine to late logarithmic phase (approximately 6 OD600/ml).
Agonists were prepared as 10 mM stocks in DMSO. […] Agonist solutions in DMSO (1% final assay volume) were transferred into black, clear bottom, microtitre plates from NUNC (96- or 384-well). Cells were suspended at a density of 0.2 OD600/ml in SC media lacking histidine, uracil, tryptophan, adenine and leucine and supplemented with 10 mM 3-aminotriazole, 0.1M sodium phosphate pH 7.0, and […] fluorescein di-β-D-glucopyranoside (FDGlu). This mixture (50 ul per well for 384-well plates, 200 ul per well for 96-well plates) was added to agonist in the assay plates (Multidrop 384, Labsystems). After incubation at 30° C. for 24 hours, fluorescence resulting from degradation of FDGlu to fluorescein due to exoglucanase, an endogenous yeast enzyme produced during agonist-stimulated cell growth, was determined using a Spectrofluor microtitre plate reader (Tecan; excitation wavelength: 485 nm; emission wavelength: 535 nm). Fluorescence was plotted against compound concentration and iteratively curve fitted using a four parameter fit to generate a concentration effect value. Efficacy (Emax) was calculated from the equation
where Max[compound X] and Min[compound X] are the fitted maximum and minimum respectively from the concentration effect curve for compound X, and Max[HU210] and Min[HU210] are the fitted maximum and minimum respectively from the concentration effect curve for (6aR,10aR)-3-(1,1′-Dimethylheptyl)-6a,7,10,10a-tetrahydro-1-hydroxy-6,6-dimethyl-6H-dibenzo[b,d]pyran-9-methanol (HU210; available from Tocris). Equieffective molar ratio (EMR) values were calculated from the equation
Where EC50 [compound X] is the EC50 of compound X and EC50 [HU210] is the EC50 of HU210.

Compound	EC50 [1] [µM]	efficacy value (Emax relative to HU210) at the cloned human cannabinoid CB2 receptor [2] [%]
Cc1cc(C#N)ccc1Nc1cc(C(C)C)c(C(=O)NCC2CCOCC2)cn1 [Example 678, 6-(4-Cyano-2-methyl-phenylamino)-4-isopropyl-N-(tetrahydro-pyran-4-ylmethyl)-nicotinamide]	> 30	–
CC(C)c1cc(Nc2ccc(C#N)cc2F)ncc1C(=O)NCC1CCCC1 [Example 751, 6-(4-Cyano-2-fluoro-phenylamino)-N-cyclopentylmethyl-4-isopropyl-nicotinamide]	> 30	–
O=C(NCc1ccccc1)c1ccc(Nc2cccc(Cl)c2)nc1C(F)(F)F [Example 458, 6-(3-Chloro-phenylamino)-N-benzyl-2-trifluoromethyl-nicotinamide]	> 30	–
CC(C)c1cc(Nc2cccc(Cl)c2)ncc1C(=O)NCC1CCS(=O)(=O)C1 (stereo not shown) [Example 681, 6-(3-Chloro-phenylamino)-N-(1,1-dioxo-tetrahydro-1l^6-thiophen-3-ylmethyl)-4-isopropyl-nicotinamide]	> 30	–
CC(C)c1cc(Nc2cc(Cl)ccc2C#N)ncc1C(=O)NCC1CCOCC1 [Example 679, 6-(5-Chloro-2-cyano-phenylamino)-4-isopropyl-N-(tetrahydro-pyran-4-ylmethyl)-nicotinamide]	> 30	–
CC(C)c1cc(Nc2cccc(Br)c2)ncc1C(=O)NCC1CCCCC1 [Example 462, 6-(3-Bromo-phenylamino)-N-cyclohexylmethyl-4-isopropyl-nicotinamide]	> 30	–
CC(C)c1nc(Nc2cccc(Cl)c2)ccc1C(=O)NCC1CCS(=O)(=O)C1 (stereo not shown) [Example 667, 6-(3-Chloro-phenylamino)-N-(1,1-dioxo-tetrahydrothriophen-3-ylmethyl)-2-isopropyl-nicotinamide]	> 30	–
CC(C)c1cc(Nc2cc(Cl)cc(Cl)c2)ncc1C(=O)NCC1CCOCC1 [Example 533, 6-(3,5-Dichloro-phenylamino)-4-isopropyl-N-(tetrahydro-pyran-4-ylmethyl)-nicotinamide]	> 30	–
CC(C)(C)c1cc(Nc2cccc(Cl)c2)ncc1C(=O)NCC1CCCCC1 [Example 527, 4-tert-Butyl-6-(3-chloro-phenylamino)-N-cyclohexylmethyl-nicotinamide]	> 30	–
CC(C)c1nc(Nc2cccc(Cl)c2)ccc1C(=O)NCC1CCOCC1 [Example 666, 6-(3-Chloro-phenylamino)-2-isopropyl-N-(tetrahydro-pyran-4-ylmethyl)-nicotinamide]	> 30	–
CC(C)c1cc(Nc2ccc(Br)c(F)c2)ncc1C(=O)NCC1CCOCC1 [Example 755, 6-(4-Bromo-3-fluoro-phenylamino)-4-isopropyl-N-(tetrahydropyran-4-ylmethyl)-nicotinamide]	> 30	–
O=C(NCC1CCOCC1)c1ccc(Nc2cccc(Cl)c2)nc1C(F)(F)F [Example 662, 6-(3-Chloro-phenylamino)-N-(tetrahydro-pyran-4-ylmethyl)-2-trifluoromethyl-nicotinamide]	> 30	–
CC(C)c1cc(Nc2ccc(Br)c(C(F)(F)F)c2)ncc1C(=O)NCC1CCOCC1 [Example 752, 6-(4-Bromo-3-trifluoromethyl-phenylamino)-4-isopropyl-N-(tetrahydropyran-4-ylmethyl)-nicotinamide]	> 30	–
O=C(NCC1CCS(=O)(=O)C1)c1cnc(Nc2cccc(Cl)c2)cc1C(F)(F)F (stereo not shown) [Example 564, 6-(3-Chloro-phenylamino)-N-(1,1-dioxo-tetrahydrothiophene-3-ylmethyl)-4-trifluoromethyl-nicotinamide]	> 30	–
CC(C)c1cc(Nc2cccc(Cl)c2)ncc1C(=O)NCC1CCC1 [Example 464, 6-(3-Chloro-phenylamino)-N-cyclobutylmethyl-4-isopropyl-nicotinamide]	> 30	–
O=C(NC1CCSCC1)c1cnc(Nc2cccc(Cl)c2Cl)nc1C(F)(F)F [Example 81, 2-(2,3-Diclorophenylamino)-4-trifluoromethyl-pyrimidine-5-carboxylic acid (tetrahydro-thiopyran-4-yl)-amide]	–	> 50
2-(3-Chlorophenylamino)-4-trifluoromethyl-pyrimidine-5-carboxylic acid (3,3-dimethylbutyl)-amide [Example 210]	–	> 50
CC(C)c1cc(N(C)c2cccc(F)c2)ncc1C(=O)NCC1CCOCC1 [Example 504, 6-[(3-Fluoro-phenyl)-methyl-amino]-4-isopropyl-N-(tetrahydro-pyran-4-ylmethyl)-nicotinamide]	> 30	–
CC(C)c1cc(Nc2cccc(Cl)c2)ncc1C(=O)NCC1CCCCC1 [Example 460, 6-(3-Chlorophenylamino)-N-cyclohexylmethyl-4 isopropylnicotinamide]	> 30	–
CC(C)c1cc(Nc2cccc(Cl)c2)ncc1C(=O)NC1CCC1 [Example 508, 6-(3-Chloro-phenylamino)-N-cyclobutyl-4-isopropyl-nicotinamide]	> 30	–
CC(C)c1cc(Nc2ccc(F)c(C(F)(F)F)c2)ncc1C(=O)NCC1CCOCC1 [Example 753, 6-(4-Fluoro-3-trifluoromethyl-phenylamino)-4-isopropyl-N-(tetrahydropyran-4-ylmethyl)-nicotinamide]	> 30	–
CC(C)c1cc(Nc2cccc(OC(F)(F)F)c2)ncc1C(=O)NCC1CCC1 [Example 682, N-Cyclobutylmethyl-4 isopropyl-6-(3-trifluoromethoxy-phenylamino)-nicotinamide]	> 30	–
CC(C)c1cc(Nc2ccc(Cl)c(Cl)c2)ncc1C(=O)NCC1CCCCC1 [Example 461, N-Cyclohexylmethyl-6-(3,4-dichloro-phenylamino)-4-isopropyl-nicotinamide]	> 30	–
CC(C)c1cc(Nc2ccc(Br)c(Br)c2)ncc1C(=O)NCC1CCOCC1 [Example 754, 6-(3,4-Dibromo-phenylamino)-4-isopropyl-N-(tetrahydropyran-4-ylmethyl)-nicotinamide]	> 30	–
CN(Cc1ccccc1)C(=O)c1cnc(Nc2ccccc2Cl)nc1C(F)(F)F [Example 305, 2-(2-Chloro-phenylamino)-4-trifluoromethyl-pyrimidine-5-carboxylic acid N-benzyl-N-methyl-amide]	–	> 50
CC(C)c1cc(Nc2ccc(Cl)cc2Cl)ncc1C(=O)NCC1CCCCC1 [Example 463, N-Cyclohexylmethyl-6-(2,4-dichlorophenylamino)-4-isopropyl-nicotinamide]	> 30	–
Cc1cc(CNC(=O)c2cnc(Nc3cccc(Cl)c3)nc2C(F)(F)F)ccn1 [Example 303, 2-(3-Chloro-phenylamino)-4-trifluoromethyl-pyrimidine-5-carboxylic acid (2-methyl-pyridin-4-ylmethyl)-amide]	–	> 50
CC1(C)OCC(CNC(=O)c2cnc(Nc3cccc(Cl)c3)cc2C(F)(F)F)O1 (stereo not shown) [Example 649, N-(2,2-dimethyl-[1,3]dioxolan-4-ylmethyl)-6-(3-chloro-phenylamino)-4-trifluoromethyl-nicotinamide]	> 30	–
